According to patent publication US6994981B2, “Modulators of paraptosis and related methods” (The Buck Institute, priority 2002, dated 2006):

Columns and labels:
[1] = tested on: striatal, cortical, and hippocampal neurons; assay: SP-induced cell death in primary striatal, cortical and hippocampal neurons, trypan blue viability and staining; format: cell-based, rat; settings: cells undergoing SP-induced cell death
Protocol: Rat neuronal primary cell cultures were also used to assay for inducers and inhibitors of paraptosis. Briefly, primary striatal, cortical and hippocampal cultures were prepared from 17-day-old Sprague-Dawley rat embryos (B&K). The tissue was dissected, minced and trypsinized for five minutes using 0.25% trypsin (Cell Grow). After the addition of 10% horse serum (Life Technologies) to inhibit the trypsin, the cell suspension was triturated 15–20 times with a 10 ml syringe and centrifuged for five minutes at 800×g. The pellet was resuspended in MEM-PAK (UCSF Cell Culture facility), supplemented with 2.02 gm glucose, 2 mM GLUTAMAX™ (Life Technologies) and penicillin/streptomycin (100 U/ml). […]
Primary neuronal cells were prepared as described in Example I. SP (SIGMA) at a concentration of 0.1 nM–100 μM was added 24–48 hrs after seeding, in the presence of 2.5% horse serum. […] Viability was quantified by trypan blue staining of the total cell population. […]
(§1) The protein kinase inhibitors were added 30 min before SP exposure at the following concentrations: 10 μM Rp-8-Br-cAMPS (adenosin 3′,5′-cyclic monophosphorothioate, 8-bromo-, Rp-isomer, sodium salt) which is a PKA inhibitor; 50 nM Calphostin C, which is a PKC inhibitor; 10 μM PD 98059 which is a MAPKK (MEK) inhibitor. […] Viability was quantified by trypan blue staining of the total cell population.

[2] = tested on: 293T cells transfected with NK1R; assay: SP-induced, NK1R-mediated cell death in 293T cells transfected with NK1R, trypan blue and staining; format: cell-based, human
Protocol: Human embryonic kidney 293T cells were grown as described in Example I. Transient transfection was performed using Superfect (Qiagen) as described by the manufacturer. Briefly, 2×10^5 cells/well were seeded into 35 mm wells 16 hr prior to transfection. Superfect:DNA complexes were added at a 5 μl:2 μg ratio for 3 hr; then the medium was replaced and after 24 hr SP was added. At 24–48 hr after addition of SP cell death was quantified as follows: the media containing floating cells were collected and centrifuged 10 min at 2000×g, the pellet was resuspended in PBS/trypan blue and the cells were counted using a hematocytometer. When other compounds were used, they were added at the same time as SP: zVAD.fmk or BAF was added at 50 μM and obtained from Enzyme System Products, Livermore, Calif. […]
as §1

With “SP: eleven amino acid neurotransmitter of the tachykinin family, ligand of NK1R” the “nuclear fragmentation, DAPI staining” value [1] was “no nuclear fragmentation”, the “phosphatidylserine flipping, annexin-V staining” value [1] was “no evidence for phosphatidylserine flipping” and the “TUNEL staining for DNA fragmentation” value ([2]; NK1R-mediated cell death) was “negative”. The Annexin-V staining ([2]; NK1R-mediated death of 293T cells) was “negative”.
